PubChem BioAssay AID1224830, NIAID – 2016

Screen: 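Regulators of TLR4 signalling towards TNF-alpha in macrophage-like cells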 (primary screen)
Cell system: human THP-1 monocytic leukaemia cells, TNF dual-luciferase reporter clone, PMA-differentiated to macrophage-like cells
Reagents: siRNA pool against human genes, 50 nM
Time to read-out: LPS for 4 h, given about 3 days after siRNA transfection
Challenge: bacterial LPS (TLR4 ligand), 10 ng/ml
Measured: 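TNF firefly reporter luminescence divided by renilla, normalised to the plate median, then turned into a robust z-score for each replicate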
Scale: TNF reporter robust z-score: higher = stronger TNF reporter response to LPS
Active means: 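Each well counts as active if its z-score is over 2.8 or under -1.5; controls are left without a call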
Shown is a random part of about 18,000 reagents tested. About 2,900 of them (16%) count as active. 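Calls are made per well; low scores hint the gene aids the LPS response, high scores that it dampens it.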 Repeated entries: four replicate wells of each siRNA pool.

gene knocked down	TNF reporter robust z-score	call
STX16	-0.1	inactive
STX16	-0.77	inactive
STX16	-0.03	inactive
STX16	-0.53	inactive
ATXN7L2	0.33	inactive
ATXN7L2	0.39	inactive
ATXN7L2	0	inactive
ATXN7L2	0.21	inactive
SHD	0.3	inactive
SHD	1.17	inactive
SHD	0.21	inactive
SHD	0.42	inactive
SLC71A1	-0.9	inactive
SLC71A1	-0.33	inactive
SLC71A1	-0.52	inactive
SLC71A1	0.16	inactive
ZNF827	0.65	inactive
ZNF827	1.66	inactive
ZNF827	1.61	inactive
ZNF827	1.22	inactive
FCHO1	-0.62	inactive
FCHO1	0.62	inactive
FCHO1	-0.4	inactive
FCHO1	-0.38	inactive
SEZ6L2	-0.44	inactive
SEZ6L2	-1.23	inactive
SEZ6L2	0.31	inactive
SEZ6L2	-0.31	inactive
COLEC12	-0.35	inactive
COLEC12	0.98	inactive
COLEC12	0.7	inactive
COLEC12	0.81	inactive
MAK16	0.12	inactive
MAK16	0.18	inactive
MAK16	1.52	inactive
MAK16	1.03	inactive
IL31	0.67	inactive
IL31	1.16	inactive
IL31	1.5	inactive
IL31	1.63	inactive
CGB3	0.45	inactive
CGB3	0.89	inactive
CGB3	0.4	inactive
CGB3	0.52	inactive
POFUT1	-1.8	active
POFUT1	-2.13	active
POFUT1	-1.86	active
POFUT1	-1.19	inactive
PPP1R21	-0.69	inactive
PPP1R21	-0.09	inactive
PPP1R21	-0.73	inactive
PPP1R21	-0.51	inactive
GDF9	-2.31	active
GDF9	-1.72	active
GDF9	-1.67	active
GDF9	-1.29	inactive
TMEM205	-1.09	inactive
TMEM205	-0.89	inactive
TMEM205	-1.28	inactive
TMEM205	-1.16	inactive
DSE	-1.58	active
DSE	-1.36	inactive
DSE	-0.85	inactive
DSE	0.12	inactive
FAM124A	0.36	inactive
FAM124A	1.17	inactive
FAM124A	0.37	inactive
FAM124A	0.29	inactive
PCNX2	-0.47	inactive
PCNX2	-0.36	inactive
PCNX2	-0.21	inactive
PCNX2	0	inactive
QPCT		inactive
QPCT	0.92	inactive
QPCT	1.28	inactive
QPCT	2.13	inactive
QPCT	2.64	inactive
